The record followed here is publication doi:10.1101/2021.12.13.472381.

Protein sequences, listed by entry. Tags and fused reporters are not part of them. Lines headed by an entry give the natural chain unless they say otherwise; changes in a name come on top. Residues count along the entry.
UniProt P02545, residues 1-646: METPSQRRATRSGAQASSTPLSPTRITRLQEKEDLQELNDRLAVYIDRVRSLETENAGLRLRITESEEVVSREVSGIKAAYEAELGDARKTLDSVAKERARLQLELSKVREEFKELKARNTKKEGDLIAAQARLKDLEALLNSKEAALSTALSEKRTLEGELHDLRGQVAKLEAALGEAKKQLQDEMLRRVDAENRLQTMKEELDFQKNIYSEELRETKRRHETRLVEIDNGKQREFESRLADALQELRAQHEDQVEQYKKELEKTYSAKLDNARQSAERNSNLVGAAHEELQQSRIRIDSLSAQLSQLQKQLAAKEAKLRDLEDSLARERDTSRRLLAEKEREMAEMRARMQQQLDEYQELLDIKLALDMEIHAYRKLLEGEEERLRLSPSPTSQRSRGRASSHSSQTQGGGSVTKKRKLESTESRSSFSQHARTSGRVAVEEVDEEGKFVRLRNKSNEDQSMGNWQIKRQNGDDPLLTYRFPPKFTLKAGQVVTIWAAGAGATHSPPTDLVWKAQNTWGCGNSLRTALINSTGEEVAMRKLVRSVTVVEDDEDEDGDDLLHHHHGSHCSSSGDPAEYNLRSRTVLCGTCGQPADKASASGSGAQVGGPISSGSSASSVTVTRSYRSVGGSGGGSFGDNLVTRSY
UniProt Q8N6T7: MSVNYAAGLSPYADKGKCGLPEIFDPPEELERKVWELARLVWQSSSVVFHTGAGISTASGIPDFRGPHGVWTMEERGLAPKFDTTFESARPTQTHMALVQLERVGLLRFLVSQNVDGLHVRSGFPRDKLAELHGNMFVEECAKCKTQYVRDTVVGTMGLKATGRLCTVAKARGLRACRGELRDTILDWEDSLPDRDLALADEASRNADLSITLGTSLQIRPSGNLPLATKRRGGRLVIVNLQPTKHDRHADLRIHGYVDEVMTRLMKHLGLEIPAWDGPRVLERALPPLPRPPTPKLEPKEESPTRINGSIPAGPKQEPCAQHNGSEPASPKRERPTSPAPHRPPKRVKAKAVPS
UniProt P16401: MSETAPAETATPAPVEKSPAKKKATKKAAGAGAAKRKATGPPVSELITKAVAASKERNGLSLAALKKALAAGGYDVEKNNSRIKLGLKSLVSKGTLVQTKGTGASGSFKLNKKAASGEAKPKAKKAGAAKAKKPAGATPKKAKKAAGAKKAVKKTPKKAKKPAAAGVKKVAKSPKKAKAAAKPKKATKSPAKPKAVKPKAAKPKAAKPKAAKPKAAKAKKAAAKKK
UniProt P08670: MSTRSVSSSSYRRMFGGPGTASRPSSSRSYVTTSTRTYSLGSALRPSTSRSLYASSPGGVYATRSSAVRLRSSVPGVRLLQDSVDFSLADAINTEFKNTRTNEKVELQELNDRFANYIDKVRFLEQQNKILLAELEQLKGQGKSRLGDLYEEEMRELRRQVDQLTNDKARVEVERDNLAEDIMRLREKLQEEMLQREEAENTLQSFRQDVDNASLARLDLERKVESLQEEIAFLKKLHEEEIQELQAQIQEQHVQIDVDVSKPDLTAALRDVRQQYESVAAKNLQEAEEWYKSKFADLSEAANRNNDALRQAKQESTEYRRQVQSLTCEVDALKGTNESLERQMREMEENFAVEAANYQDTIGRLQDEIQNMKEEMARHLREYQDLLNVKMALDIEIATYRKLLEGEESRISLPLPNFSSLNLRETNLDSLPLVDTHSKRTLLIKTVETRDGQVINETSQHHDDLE
UniProt P35637: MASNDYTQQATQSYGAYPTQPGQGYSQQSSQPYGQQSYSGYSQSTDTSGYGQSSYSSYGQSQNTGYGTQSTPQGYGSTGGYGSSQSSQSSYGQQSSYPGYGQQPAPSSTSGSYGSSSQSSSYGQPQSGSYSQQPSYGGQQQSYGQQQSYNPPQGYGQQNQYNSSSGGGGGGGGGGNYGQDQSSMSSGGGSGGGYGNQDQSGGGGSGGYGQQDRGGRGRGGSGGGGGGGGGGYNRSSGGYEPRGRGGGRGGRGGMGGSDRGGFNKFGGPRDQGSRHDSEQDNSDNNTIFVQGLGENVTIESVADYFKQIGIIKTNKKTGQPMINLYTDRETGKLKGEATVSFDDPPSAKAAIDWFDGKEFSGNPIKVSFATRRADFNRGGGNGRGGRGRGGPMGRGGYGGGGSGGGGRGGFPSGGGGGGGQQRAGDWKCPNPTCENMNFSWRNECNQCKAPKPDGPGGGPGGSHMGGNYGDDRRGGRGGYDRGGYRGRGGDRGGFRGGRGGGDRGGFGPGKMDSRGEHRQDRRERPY
UniProt Q9NYF8: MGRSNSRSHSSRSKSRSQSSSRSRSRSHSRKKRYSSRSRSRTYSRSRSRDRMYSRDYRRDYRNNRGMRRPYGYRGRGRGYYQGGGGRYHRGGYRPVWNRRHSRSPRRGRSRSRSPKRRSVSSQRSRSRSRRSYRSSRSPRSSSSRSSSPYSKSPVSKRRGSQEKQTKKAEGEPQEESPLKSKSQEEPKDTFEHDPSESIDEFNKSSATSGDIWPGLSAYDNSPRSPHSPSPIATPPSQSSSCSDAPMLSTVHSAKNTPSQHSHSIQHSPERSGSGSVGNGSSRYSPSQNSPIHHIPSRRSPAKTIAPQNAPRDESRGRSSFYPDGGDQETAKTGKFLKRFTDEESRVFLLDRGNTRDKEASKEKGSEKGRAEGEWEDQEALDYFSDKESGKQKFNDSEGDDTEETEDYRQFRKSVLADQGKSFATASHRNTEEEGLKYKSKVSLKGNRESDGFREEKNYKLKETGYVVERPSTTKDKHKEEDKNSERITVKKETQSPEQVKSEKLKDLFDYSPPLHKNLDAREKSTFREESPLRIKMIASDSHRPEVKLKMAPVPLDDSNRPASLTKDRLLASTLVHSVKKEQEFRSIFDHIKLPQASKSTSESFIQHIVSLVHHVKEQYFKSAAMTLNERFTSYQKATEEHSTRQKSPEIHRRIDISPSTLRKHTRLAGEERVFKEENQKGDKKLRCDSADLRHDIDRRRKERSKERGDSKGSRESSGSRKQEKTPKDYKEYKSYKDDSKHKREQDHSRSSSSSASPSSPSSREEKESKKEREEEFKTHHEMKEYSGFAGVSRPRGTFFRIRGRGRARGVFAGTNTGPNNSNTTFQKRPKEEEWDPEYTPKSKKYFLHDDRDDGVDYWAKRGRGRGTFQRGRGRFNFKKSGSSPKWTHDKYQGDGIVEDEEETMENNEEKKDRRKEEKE
UniProt Q15717: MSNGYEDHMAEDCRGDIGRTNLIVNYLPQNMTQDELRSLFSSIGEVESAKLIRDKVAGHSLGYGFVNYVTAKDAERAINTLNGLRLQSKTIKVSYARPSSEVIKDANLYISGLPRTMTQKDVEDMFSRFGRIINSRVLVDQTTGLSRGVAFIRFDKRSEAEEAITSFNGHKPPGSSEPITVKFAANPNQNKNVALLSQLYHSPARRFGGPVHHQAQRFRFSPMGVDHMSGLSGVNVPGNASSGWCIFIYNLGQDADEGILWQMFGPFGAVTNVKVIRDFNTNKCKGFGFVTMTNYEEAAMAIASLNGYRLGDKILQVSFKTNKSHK

Read-outs that look alike come from different tables or passages of the source. Results are given in words; binding and its absence hold for the method and conditions named. Binding seen in cells or lysates may run through a third protein. Here binding means that the protein was enriched with, or labelled near, the bait; the list need not be complete.

What all share (experiment): affinity purification with mass spectrometry
In assay [1] the target is Lamin A/C (LMNA) (human (endogenous in HCA2 fibroblasts)) (UniProt P02545).
Assay [2] addresses centSIRT6 (SIRT6 N308K/A313S, centenarian allele) (human) (UniProt Q8N6T7).
Assay [3] deals with wild type SIRT6 (Sirtuin 6) (human) (UniProt Q8N6T7).
In assay [4] the target is Lamin A/C (LMNA) (human (endogenous in HCA2 fibroblasts)) (UniProt P02545). This is another data set of the same source.

In the case of H1.5 (from UniProt P16401 1-226), the binding result in assay [1], in assay [2] and in assay [3] was “binds” each time.
“Lamin A/C (LMNA) (from UniProt P02545 1-646)”: the binding result in assay [2] and in assay [3] was “binds” throughout.
Take “vimentin (VIME) (from UniProt P08670 1-466)”: the binding result in assay [2] and in assay [3] was “binds” in each case.
Turning to FUS (from UniProt P35637 1-526), the binding entry in assay [1] was “binds”.
Same read-out and setting: then BCLAF1 (from UniProt Q9NYF8 1-920), with “binds”.
Same read-out and setting: the value for ELAVL1 (from UniProt Q15717 1-326) was “binds”.

B1: SRSF3 (protein, UniProt P84103 1-164)
chain: MHRDSCPLDCKVYVGNLGNNGNKTELERAFGYYGPLRSVWVARNPPGFAFVEFEDPRDAADAVRELDGRTLCGCRVRVELSNGEKRSRNRGPPPSWGRRPRDDYRRRSPPPRRRSPRRRSFSRSRSRSLSRDRRRERSLSRERNHKPSRSFSRSRSRSRSNERK
With B1, the binding entry in assay [4] is reported as “binds”.

B2: U2AFBP (protein, UniProt Q01081 1-240)
chain: MAEYLASIFGTEKDKVNCSFYFKIGACRHGDRCSRLHNKPTFSQTIALLNIYRNPQNSSQSADGLRCAVSDVEMQEHYDEFFEEVFTEMEEKYGEVEEMNVCDNLGDHLVGNVYVKFRREEDAEKAVIDLNNRWFNGQPIHAELSPVTDFREACCRQYEMGECTRGGFCNFMHLKPISRELRRELYGRRRKKHRSRSRSRERRSRSRDRGRGGGGGGGGGGGGRERDRRRSRDRERSGRF
Consider B2, for which, in assay [4], the binding result is “binds”.

B3: TFIP11 (protein, UniProt Q9UBB9 1-837)
chain: MSLSHLYRDGEGRIDDDDDERENFEITDWDLQNEFNPNRQRHWQTKEEATYGVWAERDSDDERPSFGGKRARDYSAPVNFISAGLKKGAAEEAELEDSDDEEKPVKQDDFPKDFGPRKLKTGGNFKPSQKGFAGGTKSFMDFGSWERHTKGIGQKLLQKMGYVPGRGLGKNAQGIINPIEAKQRKGKGAVGAYGSERTTQSMQDFPVVDSEEEAEEEFQKELSQWRKDPSGSKKKPKYSYKTVEELKAKGRISKKLTAPQKELSQVKVIDMTGREQKVYYSYSQISHKHNVPDDGLPLQSQQLPQSGKEAKAPGFALPELEHNLQLLIDLTEQEIIQNDRQLQYERDMVVNLFHELEKMTEVLDHEERVISNLSKVLEMVEECERRMQPDCSNPLTLDECARIFETLQDKYYEEYRMSDRVDLAVAIVYPLMKEYFKEWDPLKDCTYGTEIISKWKSLLENDQLLSHGGQDLSADAFHRLIWEVWMPFVRNIVTQWQPRNCDPMVDFLDSWVHIIPVWILDNILDQLIFPKLQKEVENWNPLTDTVPIHSWIHPWLPLMQARLEPLYSPIRSKLSSALQKWHPSDSSAKLILQPWKDVFTPGSWEAFMVKNIVPKLGMCLGELVINPHQQHMDAFYWVIDWEGMISVSSLVGLLEKHFFPKWLQVLCSWLSNSPNYEEITKWYLGWKSMFSDQVLAHPSVKDKFNEALDIMNRAVSSNVGAYMQPGARENIAYLTHTERRKDFQYEAMQERREAENMAQRGIGVAASSVPMNFKDLIETKAEEHNIVFMPVIGKRHEGKQLYTFGRIVIYIDRGVVFVQGEKTWVPTSLQSLIDMAK
Regarding B3, in assay [4], the binding entry is “binds”.

B4: THRAP3 (protein, UniProt Q9Y2W1 1-955)
chain: MSKTNKSKSGSRSSRSRSASRSRSRSFSKSRSRSRSLSRSRKRRLSSRSRSRSYSPAHNRERNHPRVYQNRDFRGHNRGYRRPYYFRGRNRGFYPWGQYNRGGYGNYRSNWQNYRQAYSPRRGRSRSRSPKRRSPSPRSRSHSRNSDKSSSDRSRRSSSSRSSSNHSRVESSKRKSAKEKKSSSKDSRPSQAAGDNQGDEAKEQTFSGGTSQDTKASESSKPWPDATYGTGSASRASAVSELSPRERSPALKSPLQSVVVRRRSPRPSPVPKPSPPLSSTSQMGSTLPSGAGYQSGTHQGQFDHGSGSLSPSKKSPVGKSPPSTGSTYGSSQKEESAASGGAAYTKRYLEEQKTENGKDKEQKQTNTDKEKIKEKGSFSDTGLGDGKMKSDSFAPKTDSEKPFRGSQSPKRYKLRDDFEKKMADFHKEEMDDQDKDKAKGRKESEFDDEPKFMSKVIGANKNQEEEKSGKWEGLVYAPPGKEKQRKTEELEEESFPERSKKEDRGKRSEGGHRGFVPEKNFRVTAYKAVQEKSSSPPPRKTSESRDKLGAKGDFPTGKSSFSITREAQVNVRMDSFDEDLARPSGLLAQERKLCRDLVHSNKKEQEFRSIFQHIQSAQSQRSPSELFAQHIVTIVHHVKEHHFGSSGMTLHERFTKYLKRGTEQEAAKNKKSPEIHRRIDISPSTFRKHGLAHDEMKSPREPGYKAEGKYKDDPVDLRLDIERRKKHKERDLKRGKSRESVDSRDSSHSRERSAEKTEKTHKGSKKQKKHRRARDRSRSSSSSSQSSHSYKAEEYTEETEEREESTTGFDKSRLGTKDFVGPSERGGGRARGTFQFRARGRGWGRGNYSGNNNNNSNNDFQKRNREEEWDPEYTPKSKKYYLHDDREGEGSDKWVSRGRGRGAFPRGRGRFMFRKSSTSPKWAHDKFSGEEGEIEDDESGTENREEKDNIQPTTE
In the case of B4, the binding entry in assay [4] is on record as “binds”.
